Reference: PubChem BioAssay AID2685 (National Center for Advancing Translational Sciences (NCATS), 2010)
In all, about 320,000 compounds went through this assay and about 2,100 (0.66%) were called active. Inconclusive means that the source gave no clear call. Such entries were picked first, then a sample of the others. The call rests on the fitted dose curve; in most records, active means well fitted inhibition curve with a large enough effect in the signal ratio, with a control signal flat (not every such curve was filed as active); inconclusive means small, poorly fitted or top-dose-only effect, or effect the other way, or a change in a side signal; inactive means flat fitted curve, though single readings scatter; the % refers to the signal ratio. Potencies of inconclusive entries are doubtful fits and often do not repeat.

Assay: qHTS Assay for Lipid Storage Modulators in Drosophila S3 Cells
Details: BODIPY lipid droplet fluorescence, 18-24 h, cells fed with added oleic acid; lipid storage change, negative = inhibition: at 46.1 µM (top of the series) unless noted
Summary of the method: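 Laser-scanning cytometry quantifies lipid droplet accumulation (500–530 nm total intensity; droplet/cell object ratio) in oleic acid-fed (400 uM added) Drosophila S3 cells treated with a concentration series. 20 uM Triacsin C defined 100% inhibition.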
On the % scale 0 is the no-effect control and ±100 the full control effect; potency means the concentration at half of the fitted maximal effect.

Compound | Potency | lipid storage change, negative = inhibition
CCOC(=O)C1CCN(C(=O)C2CC(=O)N(c3ccc4c(c3)OCCO4)C2)CC1 (stereo not given) | inconclusive: 0.0058 µM [rising, full curve, poor fit] | 
O=C(Cn1cc2c(n1)CCCC2)NCCCN1CCN(Cc2ccccc2)CC1 |  | inconclusive: 2.7%
O=S(=O)(NCCNS(=O)(=O)c1cccs1)c1cccs1 | inconclusive: 29.1 µM [falling, single point] | 
COc1ccc(-c2csc(NC(=O)Cc3ccccc3F)n2)cc1OC |  | inconclusive: 9.27%
O=C(O)C1=CC[C@@H](c2ccc(Cl)cc2)N(S(=O)(=O)c2ccc(Cl)cc2)[C@H]1c1cccc(Cl)c1 | inconclusive: 29.1 µM [activator, single point] | 
COc1ccc(/C=C/C(=O)O)cc1S(=O)(=O)NC1CCS(=O)(=O)C1 (stereo not given) |  | inactive
COc1ccc2c(c1)c(CC(=O)OC(C)C(=O)N(C)C)c(C)n2C(=O)c1ccc(Cl)cc1 (stereo not given) | active: 1.46 µM | 
Nc1ccn(CC(=O)NCc2ccc3[nH]ccc3c2)c(=O)n1 | inconclusive: 1.3 µM [activator, partial curve, poor fit] | 
Cc1cccc(OCCCSc2nc3ccccc3[nH]2)c1 |  | inconclusive: -15.1%
Cc1cccc(NC(=S)N2CCN(S(=O)(=O)c3ccccc3)CC2)c1 | inconclusive: 9.2 µM [activator, partial curve] | 
CN(CC(=O)Nc1ccc(F)cc1)C(=O)COC(=O)c1ccccc1 |  | inconclusive
Fc1ccc(/C=N/n2cnn(Cc3ccccc3Cl)c2=S)cc1 | inconclusive: 2.31 µM [activator, partial curve] | 
O=S(=O)(Nc1cccc(-c2ccc3nncn3n2)c1)c1cccc(F)c1 |  | inconclusive
O=C(O)CC1CCS(=O)(=O)C1 (stereo not given) | inconclusive: 2.31 µM [falling, single point] | 
Cc1nn(-c2ccccc2)c(C)c1/C=N/n1c(-c2ccncc2)n[nH]c1=S |  | inconclusive: 0.303%
O=C(N/N=C/c1ccccn1)c1cc(-c2ccncc2)nc2ccccc12 |  | inactive
COc1ccc(/C=N/NC(=O)c2ccc(OC)c(OC)c2)cc1COc1c(F)c(F)c(F)c(F)c1F |  | inconclusive: -100%
CCCCCCc1cc2cc(-c3nnc(-c4ccccc4O)o3)c(=O)oc2cc1O |  | inconclusive: -14.3%
COc1ccc2c(c1OC)C(=O)OC2C/C(=N\NC(N)=O)c1ccccc1 (stereo not given) |  | inconclusive: -7.02%
O=C(NCCCN1CCCC1=O)c1cccc(S(=O)(=O)N2CCN(c3ccc(F)cc3)CC2)c1 |  | inconclusive: 15%
c1coc(CSCc2cn3cccnc3n2)c1 |  | inconclusive: -17.2%
COc1ccc(C2/C=C\CN(C(=O)c3ccccc3)[C@H](Cc3ccccc3)C(=O)N2Cc2ccc(F)cc2)cc1 (stereo not given in full) |  | inconclusive: 6.58%
CC1CCCN(S(=O)(=O)c2ccc(NC(=O)C3CC(=O)N(C(C)(C)C)C3)cc2)C1 (stereo not given) | inconclusive: 29.1 µM [falling, single point] | 
Cc1ccc(CNc2oc(C)nc2C#N)cc1 |  | inconclusive: -19.9%
O=C(OCC#CCNc1nnc(-c2cccc3ccccc23)o1)c1cccs1 |  | inconclusive: 31%

Compound | Potency | lipid storage change, negative = inhibition
CN1CCC(=NNc2ccc(S(=O)(=O)N3CCOCC3)cc2[N+](=O)[O-])CC1 |  | inconclusive: 20.8%
O=C1CCCN1CCCNc1nc2c(S(=O)(=O)c3ccccc3)nnn2c2ccc(Cl)cc12 |  | inconclusive: -46.4%
COc1cc(NC(=O)Cn2c(-c3cncs3)nc3ccccc32)cc(OC)c1OC |  | inconclusive: -24.6%
Cc1ccc(Cl)cc1NC(=O)c1ccc(Cn2cc(Cl)cn2)cc1 |  | inconclusive: -40%
Cc1c(CCOC(=O)C2C3CC4CC(C3)CC2C4)sc[n+]1CC(=O)c1ccc(Br)cc1 (stereo not given) |  | inconclusive: 10.4%
CCCn1c2ccccc2c2nnc(SCC(=O)OC)nc21 | inconclusive: 3.66 µM [activator, single point] | 
O=C(c1cc(C2CC2)nn1-c1ccccc1)N1CCN(Cc2ccc(Cl)cc2)CC1 | inconclusive: 23.1 µM [falling, single point] | 
COc1ccccc1CNS(=O)(=O)c1ccc2c(c1)CCCN2C(C)=O | inconclusive: 29.1 µM [activator, single point] | 
COc1cccc(C(=O)/C=C/Nc2ccc(S(=O)(=O)Nc3cccc(C(C)=O)c3)cc2)c1 | inconclusive: 13 µM [falling, single point] | 
COc1ccc(/C=N/NC(=O)C(=O)NCC2CCCO2)cc1 (stereo not given) |  | inconclusive: 25.6%
O=C(CN(C(=O)c1csnn1)c1cccc2ccccc12)NCc1ccc(F)cc1 | inconclusive: 7.31 µM [activator, single point] | 
Cn1c(=O)c2c(nc(CN3CCN(c4ccc(F)cc4)CC3)n2CCN2CCOCC2)n(C)c1=O |  | inconclusive: 9.72%
O=CN(Cc1ccco1)C1(C(=O)NC2CCCCC2)CCCCC1 |  | inconclusive: 53.9%
CC(C(=O)Nc1ccc([N+](=O)[O-])cc1Cl)N1CCN(S(=O)(=O)c2cccs2)CC1 (stereo not given) | inconclusive: 23.1 µM [activator, single point] | 
Cc1ccc(NC(=O)C2CCCN2C(=O)OCc2ccccc2)cc1F (stereo not given) | inconclusive: 29.1 µM [activator, single point] | 
Cc1nn2c(N3CCN(c4ccccn4)CC3)cc(C(C)C)nc2c1-c1ccccc1 | inconclusive: 0.103 µM [activator, full curve, poor fit] | 
Cc1ccccc1NC(=S)C1=C(O)c2sccc2N(C)S1(=O)=O |  | inactive
O=C(Nc1ccc2nc(-c3ccccc3)[nH]c2c1)c1ccco1 |  | inconclusive: 51.3%
O=C(Cc1ccc(Cl)cc1)Nc1ccc(Cl)cn1 | inconclusive: 29.1 µM [falling, single point] | 
CN(C)/C=C/C1=C([N+](=O)[O-])C(c2cccc([N+](=O)[O-])c2)NC(=O)N1 (stereo not given) |  | inconclusive: -9.96%
COC(=O)CNC(=O)CNC(=O)c1nn(-c2ccc(OC)c(OC)c2)c(=O)c2ccccc12 |  | inconclusive: 56.2%
CCOC(=O)c1[nH]c(C)c(C(=O)NC2CCCCCC2)c1C |  | inactive
CCC(=O)Oc1ccc2c(C)c(Cl)c(=O)oc2c1 | inconclusive: 6.51 µM [falling, single point] | 
O=C1NCCCC1C(=O)NCCN1C(=O)CCC1=O (stereo not given) |  | inactive
Cc1c(S(=O)(=O)c2ccccn2)c(N)n(Cc2ccccc2)c1C |  | inconclusive: 22.3%

Whole records as entered above.
Cc1c(CCOC(=O)C2C3CC4CC(C3)CC2C4)sc[n+]1CC(=O)c1ccc(Br)cc1 (stereo not given) is listed with lipid storage change, negative = inhibition: inconclusive: 10.4%
Cc1ccccc1NC(=S)C1=C(O)c2sccc2N(C)S1(=O)=O is listed with lipid storage change, negative = inhibition: inactive
O=C(Nc1ccc2nc(-c3ccccc3)[nH]c2c1)c1ccco1 is listed with lipid storage change, negative = inhibition: inconclusive: 51.3%

(list continues)

Compound | Potency | lipid storage change, negative = inhibition
CC(C)(C)C(=O)Nc1cc(S(=O)(=O)N2CCCCC2)ccc1N1CCCCC1 |  | inconclusive: 9.81%
CCOc1ccc(NS(=O)(=O)c2ccc(NS(=O)(=O)c3ccc(SC)cc3)cc2)cc1 | inconclusive: 23.1 µM [activator, single point] | 
CC12CCCCC1(O)[N+](=O)C1=C(CCCC1)N2[O-] (stereo not given) | inconclusive: 0.116 µM [falling, full curve, poor fit] | 
Cc1ccsc1C(=O)Nc1ccccc1N1CCOCC1 | inconclusive: 6.51 µM [activator, single point] | 
Cc1ccc(S(=O)(=O)NC(C)C(c2cccs2)N2CCN(c3ccccc3)CC2)cc1 (stereo not given) |  | inconclusive: 28.3%
CCCn1c(NCc2cccs2)nc2ccccc21 |  | inconclusive: 4.92%
COc1ccc(Cl)cc1NC(=O)CN1CCN(S(=O)(=O)N2CCC(C)CC2)CC1 |  | inconclusive: 60.8%
CN(C)c1cccc(NC(=O)CCc2ccccc2)c1 |  | inconclusive: 47.7%
COc1ccc(C(CC(=O)N2CCOCC2)c2c(O)cc(OC)cc2OC)cc1 (stereo not given) |  | inconclusive: 17.2%
O=C(NC1CCCC1)C(c1ccc(F)cc1)N(C(=O)c1csnn1)C1CC1 (stereo not given) |  | inactive
CC(=O)NC(C(=O)c1ccccc1)C(=O)c1ccccc1 |  | inconclusive: -6.05%
CCN1CCCC1CNC(=O)C(=O)NC1CC1 (stereo not given) |  | inconclusive: 0.381%
COc1cc(/C=C2/SC(=S)N(CC(=O)NC(C)(C)C)C2=O)cc(OC)c1OC |  | inconclusive: 14.1%
CC(C)C1Oc2ccccc2N(CC(=O)N(Cc2ccncc2)Cc2ccco2)C1=O (stereo not given) |  | inactive
C[C@@H](C(=O)NCc1c(F)cccc1Cl)N1C(=O)N2CCc3c([nH]c4ccccc34)[C@@]2(C)C1=O | inconclusive: 18.4 µM [falling, single point] | 
CCN(CC)S(=O)(=O)c1ccc(C(=O)N2CCN=C2SCc2cccnc2)cc1 |  | inconclusive: 85%
C=CCn1c(=O)c(C(=O)NCCc2ccc(Cl)cc2)c(O)c2cc(OC)c(OC)cc21 |  | inconclusive: -59%
CC1(C)OC(=O)C(=CNC(CCC(N)=O)C(=O)O)C(=O)O1 (stereo not given) | inconclusive: 29.1 µM [falling, single point] | 
Cc1csc(NC(=O)CSc2nnc(NC(=O)COc3ccc(Cl)cc3)s2)n1 |  | inconclusive: -20.2%
Cn1cncc1C#Cc1ccc2cc(CCCO)oc(=O)c2c1 | inconclusive: 0.146 µM [falling, full curve, poor fit] | 
COc1ccc(C2NC(=O)C(C#N)=C(S)N2c2ccccc2)cc1OC (stereo not given) |  | inconclusive: -9.53%
COc1cc(C2C(C(=O)c3cc4ccccc4o3)=C(O)C(=O)N2c2cc(C)on2)cc(OC)c1OC (stereo not given) |  | inconclusive: -21.1%
COc1ccc(C(=O)C2CCCN(Cc3cc(C)c(O)c(C)c3)C2)c(OC)c1 (stereo not given) | inconclusive: 16.4 µM [falling, single point] | 
O=C(NC(=S)Nc1ccccc1F)C1CCCCC1 | inconclusive: 16.4 µM [activator, partial curve] | 
Cc1cccc(N2CCN(C(=O)c3cnn4c(C(F)F)cc(-c5ccccc5)nc34)CC2)c1C | inconclusive: 1.03 µM [activator, partial curve] | 
